Publication PMC6453957
For part of these data: A weaker result is weaker than the reference pair of the same experiment. For part of these data: Tags and fusion partners may be left off the protein sequences shown. For part of these data: The exact form of at least one protein or probe is not confirmed. For part of these data: Where cells or extracts were used, other partners may take part. For part of these data: Negatives hold for the conditions tested.

Amino acid sequences for entries named in this document (tags omitted). A change or cut given only in a name is not applied to a line headed by its entry.
UniProt Q07955, whole entry: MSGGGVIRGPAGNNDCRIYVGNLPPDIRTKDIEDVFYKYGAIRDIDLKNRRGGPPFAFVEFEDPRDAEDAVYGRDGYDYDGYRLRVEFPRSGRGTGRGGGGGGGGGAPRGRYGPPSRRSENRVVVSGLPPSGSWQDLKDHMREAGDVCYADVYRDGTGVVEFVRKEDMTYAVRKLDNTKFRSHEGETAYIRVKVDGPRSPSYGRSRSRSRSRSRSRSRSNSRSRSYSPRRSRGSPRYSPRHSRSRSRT
UniProt P26599: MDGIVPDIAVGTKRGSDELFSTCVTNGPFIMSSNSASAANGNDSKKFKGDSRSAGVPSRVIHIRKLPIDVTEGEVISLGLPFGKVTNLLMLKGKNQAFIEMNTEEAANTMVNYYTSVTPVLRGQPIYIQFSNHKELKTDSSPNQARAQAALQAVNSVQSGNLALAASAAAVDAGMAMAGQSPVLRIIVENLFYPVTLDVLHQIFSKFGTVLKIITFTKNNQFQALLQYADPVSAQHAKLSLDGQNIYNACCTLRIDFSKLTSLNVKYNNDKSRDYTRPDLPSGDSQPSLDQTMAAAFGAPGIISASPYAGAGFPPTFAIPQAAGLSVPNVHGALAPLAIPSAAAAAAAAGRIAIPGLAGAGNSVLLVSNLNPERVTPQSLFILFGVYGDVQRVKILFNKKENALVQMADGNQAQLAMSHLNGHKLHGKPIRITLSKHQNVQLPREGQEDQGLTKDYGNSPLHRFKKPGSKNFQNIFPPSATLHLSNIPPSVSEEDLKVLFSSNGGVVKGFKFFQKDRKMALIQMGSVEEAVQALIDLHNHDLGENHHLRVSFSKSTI

Tests used:
[1] = biological target: SRSF1 (UniProt Q07955); test: pull-down, immunoblot; conditions: HEK293 nuclear extract, 2'-O-methyl on every nucleotide, switchSENSE titration: T100 (10 mM Tris-HCl pH 7.4, 100 mM NaCl, 0.05% Tween20), 37 C, sizing: T40 (same with 40 mM NaCl), protein in an extract, label: 5' biotin, synthetic backbone
[2] = biological target: PTBP1 (UniProt P26599); test: pull-down, immunoblot; conditions: HEK293 nuclear extract, 2'-O-methyl on every nucleotide, switchSENSE titration: T100 (10 mM Tris-HCl pH 7.4, 100 mM NaCl, 0.05% Tween20), 37 C, sizing: T40 (same with 40 mM NaCl), protein in an extract, label: 5' biotin, synthetic backbone
[3] = system: RBFOX2; test: pull-down, immunoblot; conditions: HEK293 nuclear extract, 2'-O-methyl on every nucleotide, switchSENSE titration: T100 (10 mM Tris-HCl pH 7.4, 100 mM NaCl, 0.05% Tween20), 37 C, sizing: T40 (same with 40 mM NaCl), protein in an extract, label: 5' biotin, synthetic backbone
[4] = biological target: T1, RBFOX1 RRM (UniProt Q9NWB1); test: NMR 1H-15N HSQC titration; conditions: 313 K, only small shifts, NMR: NMR buffer (RNA in T40), recombinant protein, residues 109-208, protein details: N-terminal 6xHis
T1 sequence (looked up): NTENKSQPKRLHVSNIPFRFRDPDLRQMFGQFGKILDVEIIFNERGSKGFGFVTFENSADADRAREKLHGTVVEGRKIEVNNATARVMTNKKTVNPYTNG

Sequence: CGCAGGACGCAGGACGCAGGA [biSF2i2]
- binding result [1]: binds

Sequence: CUCUCUCUCUCUCUCUCUCUCUCU [biPTBP1i]
- binding result [2]: binds

Sequence: GCAAUCCGCAAUCCGCAAUCC [biSCRM]
- binding result [1]: no binding
- binding result [2]: no binding
- binding result [3]: no binding

Sequence: UCAGAGGA [SRSF1 motif control RNA]
- binding result [4]: binds more weakly
